In paper PMC10768284:
Results are given in words; binding and its absence hold for the method and conditions named. Binding seen in cells or lysates may run through a third protein. Some entries that bind do so weakly or less than the wild type.

Chains of the proteins cited; added tags and fusions are not shown.
UniProt O15169: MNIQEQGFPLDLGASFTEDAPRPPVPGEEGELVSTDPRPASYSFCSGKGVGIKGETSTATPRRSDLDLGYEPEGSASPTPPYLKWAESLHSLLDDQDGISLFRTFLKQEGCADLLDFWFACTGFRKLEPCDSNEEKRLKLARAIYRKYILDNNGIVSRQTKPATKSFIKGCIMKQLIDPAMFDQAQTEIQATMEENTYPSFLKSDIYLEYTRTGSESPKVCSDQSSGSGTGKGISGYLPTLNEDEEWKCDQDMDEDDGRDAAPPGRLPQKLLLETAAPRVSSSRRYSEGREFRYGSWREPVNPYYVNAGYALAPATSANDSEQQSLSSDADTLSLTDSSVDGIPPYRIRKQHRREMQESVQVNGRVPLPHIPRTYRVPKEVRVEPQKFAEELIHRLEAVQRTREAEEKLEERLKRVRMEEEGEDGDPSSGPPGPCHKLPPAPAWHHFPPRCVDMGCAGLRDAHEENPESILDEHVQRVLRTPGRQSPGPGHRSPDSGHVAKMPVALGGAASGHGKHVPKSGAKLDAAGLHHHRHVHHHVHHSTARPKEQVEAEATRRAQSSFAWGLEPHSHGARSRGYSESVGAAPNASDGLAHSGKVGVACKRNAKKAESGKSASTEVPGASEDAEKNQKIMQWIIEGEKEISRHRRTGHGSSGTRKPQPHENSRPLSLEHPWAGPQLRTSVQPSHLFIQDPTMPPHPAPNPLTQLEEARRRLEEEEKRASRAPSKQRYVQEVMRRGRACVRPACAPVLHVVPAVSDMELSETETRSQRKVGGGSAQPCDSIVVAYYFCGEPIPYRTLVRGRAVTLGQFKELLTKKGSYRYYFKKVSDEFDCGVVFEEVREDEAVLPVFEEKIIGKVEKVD
UniProt P49674: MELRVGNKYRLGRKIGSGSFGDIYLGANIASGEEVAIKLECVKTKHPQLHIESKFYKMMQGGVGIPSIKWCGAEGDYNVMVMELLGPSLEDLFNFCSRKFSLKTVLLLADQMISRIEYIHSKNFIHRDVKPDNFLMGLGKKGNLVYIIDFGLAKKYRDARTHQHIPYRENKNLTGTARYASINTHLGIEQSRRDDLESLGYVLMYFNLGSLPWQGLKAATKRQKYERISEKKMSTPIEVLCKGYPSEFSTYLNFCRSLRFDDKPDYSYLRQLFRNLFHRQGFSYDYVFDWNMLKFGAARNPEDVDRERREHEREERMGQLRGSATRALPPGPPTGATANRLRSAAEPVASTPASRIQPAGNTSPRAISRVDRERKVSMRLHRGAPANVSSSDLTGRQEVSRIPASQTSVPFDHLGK

Target: Axin1 (human (endogenous in HEK293T)) (UniProt O15169)
Experiment: co-IP; endogenous proteins in HEK293T lysate (RIPA lysis mixture with protease and phosphatase inhibitors); supernatant incubated overnight at 4 °C with specific primary antibody or control IgG, protein A/G magnetic beads 3 h, washed 3 times with RIPA; cells treated with 0.2 μg/mL rRSPO1 for 12 h, alone or with 0.2 μM SR3029; co-precipitated CK1ε and LRP6 normalized to Axin1

binding: binds
Substance: Casein kinase 1ε (CK1ε) (from UniProt P49674 1-416) (enzyme)
